# Assay results as given in doi:10.1101/2023.10.05.561144.
# Results are given in words; binding and its absence hold for the method and conditions named. In cells and extracts the contact can be indirect. A yes stands for co-enrichment or nearness to the bait. Other partners may have been found. Tags and fused reporters may be left off the sequences shown.
# T1: biotin ligase-fused AQP1 (AdBioAQP1), adenoviral construct (human) (UniProt P29972)
# T1 sequence: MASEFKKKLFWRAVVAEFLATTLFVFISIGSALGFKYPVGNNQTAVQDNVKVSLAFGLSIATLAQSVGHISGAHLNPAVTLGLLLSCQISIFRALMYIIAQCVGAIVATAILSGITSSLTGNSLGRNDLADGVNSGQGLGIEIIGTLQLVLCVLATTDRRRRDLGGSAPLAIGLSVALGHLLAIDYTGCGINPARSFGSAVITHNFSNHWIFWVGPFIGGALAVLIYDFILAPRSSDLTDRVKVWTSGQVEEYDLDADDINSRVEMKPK
# T2: biotin ligase-fused casp3 (BioCasp3), plasmid construct (UniProt P42574)
# T2 sequence: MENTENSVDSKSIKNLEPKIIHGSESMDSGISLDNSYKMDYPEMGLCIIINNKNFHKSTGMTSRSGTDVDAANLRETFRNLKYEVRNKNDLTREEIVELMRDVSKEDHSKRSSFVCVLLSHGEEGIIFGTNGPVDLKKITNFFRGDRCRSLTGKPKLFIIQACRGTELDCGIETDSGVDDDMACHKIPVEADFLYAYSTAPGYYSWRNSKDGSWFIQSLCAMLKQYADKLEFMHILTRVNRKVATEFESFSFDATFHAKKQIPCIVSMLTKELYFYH
# B1: pro-casp3, endogenous in rat PASMCs (enzyme, UniProt P55213 1-277)
# chain: MDNNETSVDSKSINNFETKTIHGSKSMDSGIYLDSSYKMDYPEMGLCIIINNKNFHKSTGMSARNGTDVDAANLRETFMALKYEVRNKNDLTREEIMELMDSVSKEDHSKRSSFVCVILSHGDEGVIFGTNGPVDLKKLTSFFRGDYCRSLTGKPKLFIIQACRGTELDCGIETDSGTDDDMACQKIPVEADFLYAYSTAPGYYSWRNSRDGSWFIQSLCAMLKLYAHKLEFMHILTRVNRKVATEFESFSLDATFHAKKQIPCIVSMLTKELYFYH
# B2: wild type AQP1 (WTAQP1), plasmid construct (protein, UniProt P29972 1-269)
# chain: T1 sequence
# How the values were obtained:
# [1] = target: T1, biotin ligase-fused AQP1 (AdBioAQP1), adenoviral construct (human); assay: proximity labelling
# [2] = target: T2, biotin ligase-fused casp3 (BioCasp3), plasmid construct; assay: proximity labelling
binder,measurement,setting,value
B1,binding,[1],binds
B2,binding,[2],binds
